Test [1] has as its target T1, STING, endogenous in mouse peritoneal macrophages (mouse (endogenous in primary peritoneal macrophages)) (UniProt Q3TBT3).
T1 sequence: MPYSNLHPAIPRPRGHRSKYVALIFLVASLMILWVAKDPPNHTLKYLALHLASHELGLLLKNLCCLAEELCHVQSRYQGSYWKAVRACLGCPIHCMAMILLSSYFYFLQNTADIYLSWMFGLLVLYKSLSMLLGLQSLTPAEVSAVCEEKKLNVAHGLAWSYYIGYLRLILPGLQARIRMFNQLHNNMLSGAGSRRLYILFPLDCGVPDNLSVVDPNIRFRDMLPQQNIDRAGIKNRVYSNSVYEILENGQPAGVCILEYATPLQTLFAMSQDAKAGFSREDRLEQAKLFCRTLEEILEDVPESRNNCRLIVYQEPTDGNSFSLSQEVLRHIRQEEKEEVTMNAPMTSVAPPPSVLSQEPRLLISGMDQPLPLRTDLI
The test can be described thus: co-IP; endogenous proteins in HSV-1-infected mouse peritoneal macrophages; IP lysis buffer 50 mM Tris-HCl pH 7.4, 50 mM EDTA, 150 mM NaCl, 1% NP-40; indicated antibodies with Protein A/G PLUS-Agarose overnight at 4 °C; immunoblot.

The chains behind the UniProt entries cited, without tags or fusion partners.
UniProt Q86WV6: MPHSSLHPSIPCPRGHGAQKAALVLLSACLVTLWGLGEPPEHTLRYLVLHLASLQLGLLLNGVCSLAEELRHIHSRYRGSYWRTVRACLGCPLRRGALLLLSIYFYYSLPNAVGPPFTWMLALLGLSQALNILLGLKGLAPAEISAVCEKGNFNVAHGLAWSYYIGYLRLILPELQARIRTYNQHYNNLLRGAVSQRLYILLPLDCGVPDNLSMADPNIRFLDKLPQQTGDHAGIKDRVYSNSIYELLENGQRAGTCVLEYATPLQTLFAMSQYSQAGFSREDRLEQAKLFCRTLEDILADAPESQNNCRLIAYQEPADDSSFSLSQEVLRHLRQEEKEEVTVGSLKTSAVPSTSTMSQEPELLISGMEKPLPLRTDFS
UniProt P84078: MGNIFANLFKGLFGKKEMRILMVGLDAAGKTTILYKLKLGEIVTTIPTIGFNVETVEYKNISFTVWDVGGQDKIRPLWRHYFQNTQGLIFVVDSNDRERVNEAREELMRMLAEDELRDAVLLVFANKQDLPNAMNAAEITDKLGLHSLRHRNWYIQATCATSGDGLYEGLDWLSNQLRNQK
UniProt P84077: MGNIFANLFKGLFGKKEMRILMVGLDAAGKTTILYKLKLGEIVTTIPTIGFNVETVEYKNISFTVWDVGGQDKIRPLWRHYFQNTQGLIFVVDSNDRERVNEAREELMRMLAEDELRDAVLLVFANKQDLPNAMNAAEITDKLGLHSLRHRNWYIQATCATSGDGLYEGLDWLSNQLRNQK

In test [2] the target is STING-HA (stimulator of interferon gene) (UniProt Q86WV6). The test can be described thus: co-IP; HEK293T cells co-transfected with tagged STING and ARF1-Flag; in Fig. 7f followed by myristic acid treatment; IP lysis buffer 50 mM Tris-HCl pH 7.4, 50 mM EDTA, 150 mM NaCl, 1% NP-40; indicated antibodies with Protein A/G PLUS-Agarose overnight at 4 °C; immunoblot.
The target of test [3] is STING-Myc (stimulator of interferon gene) (UniProt Q86WV6). The test is described as above.

Results are given in words; binding and its absence hold for the method and conditions named. Binding seen in cells or lysates may run through a third protein. Some results given as binding are weak or reduced against the parent protein; the word gives no strength.

“ARF1, endogenous in mouse peritoneal macrophages (from UniProt P84078 1-181)”: the binding entry in test [1] is listed as “binds”.
As to “ARF1-Flag (ADP-ribosylation factor 1, wild type) (from UniProt P84077 1-181)”, the binding result in test [2] and in test [3] was “binds” in each case.

The values above are taken from PMC9905541.
